Measured values: the supplement of paper PMC12823440, “Inhibitors supercharge kinase turnover through native proteolytic circuits” (Nature, 2025)
Counter-ions that a name gives are not always drawn. Some of the results follow. The calls rarely recur for the same compound in another form.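 Kinases were expressed as nanoluciferase fusions in K562 cells and luminescence was read every 4 h between 2 and 18 h as percent of control, DMSO set to 100% and a positive control to 0%. A time point counts as decreased when the signal drops significantly (2 sigma). The hit call is the authors' own, does not follow from the count of time points alone, and its rule is not shown.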

Amino acid sequences for entries named in this document (tags omitted). A change or cut given only in a name is not applied to a line headed by its entry.
UniProt Q6PHR2: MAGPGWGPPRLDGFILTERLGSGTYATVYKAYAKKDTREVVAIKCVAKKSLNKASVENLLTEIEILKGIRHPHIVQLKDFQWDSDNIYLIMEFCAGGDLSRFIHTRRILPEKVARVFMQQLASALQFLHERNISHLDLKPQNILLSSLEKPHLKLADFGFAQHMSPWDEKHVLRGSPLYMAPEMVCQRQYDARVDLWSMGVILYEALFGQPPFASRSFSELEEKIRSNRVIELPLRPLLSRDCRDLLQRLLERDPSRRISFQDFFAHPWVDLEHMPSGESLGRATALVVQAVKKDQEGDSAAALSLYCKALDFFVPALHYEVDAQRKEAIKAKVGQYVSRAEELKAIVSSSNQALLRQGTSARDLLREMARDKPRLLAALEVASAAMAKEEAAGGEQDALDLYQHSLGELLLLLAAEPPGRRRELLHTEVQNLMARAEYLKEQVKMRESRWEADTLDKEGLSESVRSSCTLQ
UniProt P07947, whole entry, looked up: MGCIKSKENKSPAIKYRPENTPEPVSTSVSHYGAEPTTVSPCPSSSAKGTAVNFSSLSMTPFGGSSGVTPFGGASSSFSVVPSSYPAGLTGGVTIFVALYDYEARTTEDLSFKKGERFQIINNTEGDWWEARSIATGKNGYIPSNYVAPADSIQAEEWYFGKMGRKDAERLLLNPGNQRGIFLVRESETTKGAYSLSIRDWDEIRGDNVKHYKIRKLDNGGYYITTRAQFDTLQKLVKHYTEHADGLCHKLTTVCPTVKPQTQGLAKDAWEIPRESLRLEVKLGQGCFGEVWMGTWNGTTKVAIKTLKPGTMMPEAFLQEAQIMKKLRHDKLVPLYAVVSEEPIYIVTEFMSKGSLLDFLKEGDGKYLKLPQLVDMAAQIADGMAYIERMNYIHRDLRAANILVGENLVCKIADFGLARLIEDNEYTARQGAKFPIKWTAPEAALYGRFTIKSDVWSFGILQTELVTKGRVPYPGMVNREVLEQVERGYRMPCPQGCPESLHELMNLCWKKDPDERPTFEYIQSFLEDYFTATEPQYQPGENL

molecular target: ULK3 (UniProt Q6PHR2); experiment: kinase-Nluc reporter destabilization hit call (1 = scored as downregulated) (binary); higher = compound decreases kinase abundance; settings: K562; 2-18 h

kinase-Nluc reporter destabilization hit call, inactive:
N#Cc1c(-c2ccccc2)cc(-c2cc(Br)ccc2O)[nH]c1=O (10 µM) 0
CCn1c(-c2nonc2N)nc2cnc(Oc3cccc(NC(=O)c4ccc(OCCN5CCOCC5)cc4)c3)cc21 (10 µM) 0
CO[C@H]1C[C@@H]2CC[C@@H](C)[C@@](O)(O2)C(=O)C(=O)N2CCCC[C@H]2C(=O)O[C@H]([C@H](C)C[C@@H]2CC[C@@H](O)[C@H](OC)C2)CC(=O)[C@H](C)/C=C(\C)[C@@H](O)[C@@H](OC)C(=O)[C@H](C)C[C@H](C)/C=C/C=C/C=C/1C [Rapamycin] (10 µM) 0
CC(C)=CCC[C@](C)(O[C@@H]1O[C@H](CO)[C@@H](O)[C@H](O)[C@H]1O)[C@H]1CC[C@]2(C)[C@@H]1[C@H](O)C[C@@H]1[C@@]3(C)CC[C@H](O)C(C)(C)[C@@H]3[C@@H](O[C@@H]3O[C@H](CO)[C@@H](O)[C@H](O)[C@H]3O[C@@H]3O[C@@H](C)[C@H](O)[C@@H](O)[C@H]3O)C[C@]12C [Ginsenoside Re] (10 µM) 0
Cn1c(=O)c(F)c(Nc2ccc(I)cc2F)c2c(=O)n(C[C@@H](O)CO)cnc21 (10 µM) 0

molecular target: YES1 (UniProt P07947); experiment: as above; settings: K562; 2-18 h

kinase-Nluc reporter destabilization hit call, inactive:
NCc1ccc(Nc2ncc(F)c(Nc3ccccc3)n2)cc1 (10 µM) 0
C=C(C)C(=O)Nc1cccc(-c2ncnc3[nH]cc(C(=O)OCC)c23)c1 (10 µM) 0
CCOc1cc(C(=O)N2CCC(N3CCN(C)CC3)CC2)ccc1Nc1ncc2c(n1)N(C1CCCC1)c1ccccc1C(=O)N2C (10 µM) 0
CCOc1ccc(C(=O)Nc2ncc([N+](=O)[O-])s2)cc1 (10 µM) 0
CNC(=O)Nc1ccc(-c2cc(-c3ccnc(Nc4ccc(C)c(S(=O)(=O)N(C)C)c4)n3)ccn2)cc1 [hSMG-1 inhibitor 11e] (2.5 µM) 0
CNC(=O)c1ccc(-c2cnc3cnc(C(=O)N(C)c4ccc(Cl)cc4)cn23)cc1 (2.5 µM) 0
COc1cccc(-n2c(=O)[nH]c3cc(Cl)n(-c4ccc(-c5cccc(OC)c5O)cc4)c3c2=O)c1 (2.5 µM) 0
O=C(Nc1cccnc1)c1cc(C(=O)c2c(F)cccc2Br)c[nH]1 (10 µM) 0
CN(CC(=O)N(Cc1ccc(C2CCCCC2)cc1)c1ccc(C(=O)O)cc1)S(=O)(=O)c1c(F)c(F)c(F)c(F)c1F (2.5 µM) 0
COc1c(NC(=O)C(=O)c2ccc(OCCN3CCOCC3)c3ccccc23)cc(C(C)(C)C)cc1NS(C)(=O)=O (2.5 µM) 0
CC(C)CC1(O)CCN(C(=O)c2ccc(NS(=O)(=O)c3cccc4nccnc34)cc2)CC1 (10 µM) 0
O=C(/C=C/c1ccc(O)c(O)c1)c1ccc(O[C@@H]2O[C@H](CO)[C@@H](O)[C@H](O)[C@H]2O)c(O)c1O [Marein] (10 µM) 0
Cc1cc2cc(Nc3ccnc(Nc4ccc5[nH]c(C)cc5c4)n3)ccc2[nH]1 (2.5 µM) 0
Cc1cc(Nc2cc(Cl)nc(Oc3ccc([N+](=O)[O-])cc3)n2)n[nH]1 [Autophinib] (2.5 µM) 0
Fc1ccc(-c2nc(-c3ccccc3F)[nH]c2-c2ccncc2)cc1 (2.5 µM) 0
OC(COc1ccc(C(F)(F)F)cc1)CN(Cc1ccccc1)Cc1ccccc1 (centres undefined) (2.5 µM) 0
COc1ccc2[nH]cc(/C=C3\C(=O)Nc4ccc(NC(=O)CCN5CCCCC5)cc43)c2c1 (2.5 µM) 0
CS(=O)(=O)c1ccc(-c2noc(C(F)(F)F)c2-c2ccccc2)cc1 (10 µM) 0
COCCO[C@@H]1[C@H](O)[C@@H](CO)O[C@H]1n1cnc2c(=O)[nH]c(N)nc21 [2′-O-(2-Methoxyethyl)guanosine] (10 µM) 0
Cn1cnc(-c2cc3nccc(Oc4ccc(NC(=S)NC(=O)Cc5ccccc5)cc4F)c3s2)c1 [MGCD-265 analog] (10 µM) 0
Cc1noc(C)c1-c1ccc(-c2cc(C(N)=O)c(NC(N)=O)s2)c(O[C@H]2CCNC2)c1 (10 µM) 0
Cc1c(CN2CCN(S(C)(=O)=O)CC2)sc2c(N3CCOCC3)nc(-c3cnc(N)nc3)nc12 (2.5 µM) 0
CC(C)CN(CC(=O)N1CCN(CC(OCc2ccc3ccccc3c2)c2ccc(Cl)cc2Cl)CC1)CC(C)C (centres undefined) [LYN-1604 (dihydrochloride)] (2.5 µM) 0
CC/C=C\C/C=C\C/C=C\CCCCCCCC(=O)O [α-Linolenic acid] (10 µM) 0
Nc1ncnc2c1c(-c1ccc(Oc3ccccc3)cc1)nn2C1CCNCC1 [N-piperidine Ibrutinib (hydrochloride)] (10 µM) 0
CC(C)NC(=O)N1CC[C@H](NC2=Nc3cc(F)ccc3N(CC(F)F)c3ccc(Cl)cc32)C1 (10 µM) 0
O=C(Nc1cc(Oc2cc(F)c(NC(=O)C3(C(=O)Nc4ccc(F)cc4)CC3)cc2F)ccn1)C1CC1 [Altiratinib] (10 µM) 0
COCCOc1ccc(-c2cn(-c3ccccc3)c3nc[nH]c(=O)c23)cc1 (10 µM) 0
Cc1ccc2nc(NC(=O)CSc3nc4c(c(=O)n3-c3ccccc3)SCC4)sc2c1 (2 µM) 0
C[C@]1(O)CCC[C@@H]1n1c(=O)c(C(F)F)cc2cnc(NC3CCN(S(C)(=O)=O)CC3)nc21 (10 µM) 0
NC1(Cc2ccc(Cl)cc2)CCN(c2ncnc3[nH]ccc23)CC1 (10 µM) 0
O=C(O)c1cc(O)ccc1O [2,5-Dihydroxybenzoic acid] (10 µM) 0
C=C(CCC=C(C)C)[C@H]1CC[C@]2(C)[C@@H]1[C@H](O)C[C@@H]1[C@@]3(C)CC[C@H](O[C@@H]4O[C@H](CO)[C@@H](O)[C@H](O)[C@H]4O[C@@H]4O[C@H](CO)[C@@H](O)[C@H](O)[C@H]4O)C(C)(C)[C@@H]3CC[C@]12C [Ginsenoside Rk1] (10 µM) 0
CC(C)=CC[C@H](O)C1=CC(=O)c2c(O)ccc(O)c2C1=O [(-)-Alkannin] (2.5 µM) 0
N#Cc1c(-c2ccccc2)cc(-c2cc(Br)ccc2O)[nH]c1=O (10 µM) 0
CCn1c(-c2nonc2N)nc2cnc(Oc3cccc(NC(=O)c4ccc(OCCN5CCOCC5)cc4)c3)cc21 (10 µM) 0
CO[C@H]1C[C@@H]2CC[C@@H](C)[C@@](O)(O2)C(=O)C(=O)N2CCCC[C@H]2C(=O)O[C@H]([C@H](C)C[C@@H]2CC[C@@H](O)[C@H](OC)C2)CC(=O)[C@H](C)/C=C(\C)[C@@H](O)[C@@H](OC)C(=O)[C@H](C)C[C@H](C)/C=C/C=C/C=C/1C [Rapamycin] (10 µM) 0
CC(C)=CCC[C@](C)(O[C@@H]1O[C@H](CO)[C@@H](O)[C@H](O)[C@H]1O)[C@H]1CC[C@]2(C)[C@@H]1[C@H](O)C[C@@H]1[C@@]3(C)CC[C@H](O)C(C)(C)[C@@H]3[C@@H](O[C@@H]3O[C@H](CO)[C@@H](O)[C@H](O)[C@H]3O[C@@H]3O[C@@H](C)[C@H](O)[C@@H](O)[C@H]3O)C[C@]12C [Ginsenoside Re] (10 µM) 0
Cn1c(=O)c(F)c(Nc2ccc(I)cc2F)c2c(=O)n(C[C@@H](O)CO)cnc21 (10 µM) 0
